For the assay, the target named is Fused in sarcoma (FUS) (human (endogenous in U-2 OS)) (UniProt P35637). Nature of the assay: affinity purification with mass spectrometry.

Chains of the proteins cited; added tags and fusions are not shown. Lines headed by an entry give the natural chain unless they say otherwise; changes in a name come on top.
UniProt P35637: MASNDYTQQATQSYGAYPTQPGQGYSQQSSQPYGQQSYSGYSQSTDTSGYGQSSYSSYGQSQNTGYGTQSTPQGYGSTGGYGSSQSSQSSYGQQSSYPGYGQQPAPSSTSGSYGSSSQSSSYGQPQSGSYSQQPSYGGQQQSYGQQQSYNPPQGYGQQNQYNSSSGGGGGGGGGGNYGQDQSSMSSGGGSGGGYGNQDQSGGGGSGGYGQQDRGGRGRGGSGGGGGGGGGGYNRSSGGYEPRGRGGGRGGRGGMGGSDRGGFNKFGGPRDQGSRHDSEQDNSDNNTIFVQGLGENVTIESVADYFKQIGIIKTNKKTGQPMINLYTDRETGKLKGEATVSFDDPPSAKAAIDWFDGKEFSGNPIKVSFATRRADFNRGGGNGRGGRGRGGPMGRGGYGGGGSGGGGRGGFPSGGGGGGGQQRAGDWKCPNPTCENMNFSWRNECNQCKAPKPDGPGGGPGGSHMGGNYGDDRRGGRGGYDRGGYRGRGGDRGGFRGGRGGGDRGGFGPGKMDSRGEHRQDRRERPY
UniProt P28340: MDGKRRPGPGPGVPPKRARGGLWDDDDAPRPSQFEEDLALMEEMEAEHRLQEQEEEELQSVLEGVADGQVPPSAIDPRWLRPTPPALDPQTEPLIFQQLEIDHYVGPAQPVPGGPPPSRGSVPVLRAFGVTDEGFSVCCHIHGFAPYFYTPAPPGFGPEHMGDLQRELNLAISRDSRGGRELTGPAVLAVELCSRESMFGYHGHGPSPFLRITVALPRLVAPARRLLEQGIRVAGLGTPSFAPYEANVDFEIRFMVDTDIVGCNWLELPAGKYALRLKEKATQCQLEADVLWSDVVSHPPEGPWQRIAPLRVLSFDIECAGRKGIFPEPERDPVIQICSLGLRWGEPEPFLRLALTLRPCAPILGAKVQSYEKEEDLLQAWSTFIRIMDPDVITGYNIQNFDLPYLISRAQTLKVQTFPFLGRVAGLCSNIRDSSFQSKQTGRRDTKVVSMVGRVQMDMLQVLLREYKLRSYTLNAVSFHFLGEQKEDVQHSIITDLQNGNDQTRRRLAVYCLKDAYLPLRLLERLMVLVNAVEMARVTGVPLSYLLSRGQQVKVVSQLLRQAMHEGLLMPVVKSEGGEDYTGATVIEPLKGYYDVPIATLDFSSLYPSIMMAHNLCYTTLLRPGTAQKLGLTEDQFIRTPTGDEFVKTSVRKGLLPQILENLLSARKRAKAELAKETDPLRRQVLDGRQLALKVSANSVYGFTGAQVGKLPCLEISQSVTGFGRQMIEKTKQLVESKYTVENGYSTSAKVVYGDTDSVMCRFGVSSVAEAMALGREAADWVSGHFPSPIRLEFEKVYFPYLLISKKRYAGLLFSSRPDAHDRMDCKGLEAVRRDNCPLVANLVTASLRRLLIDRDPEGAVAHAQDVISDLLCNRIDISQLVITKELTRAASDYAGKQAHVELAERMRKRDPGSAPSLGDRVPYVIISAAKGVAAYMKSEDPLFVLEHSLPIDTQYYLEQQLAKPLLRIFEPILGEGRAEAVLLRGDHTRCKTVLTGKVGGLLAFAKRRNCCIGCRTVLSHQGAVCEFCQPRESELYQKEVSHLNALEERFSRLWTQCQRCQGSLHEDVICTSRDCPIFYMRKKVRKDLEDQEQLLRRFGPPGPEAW
UniProt P78527: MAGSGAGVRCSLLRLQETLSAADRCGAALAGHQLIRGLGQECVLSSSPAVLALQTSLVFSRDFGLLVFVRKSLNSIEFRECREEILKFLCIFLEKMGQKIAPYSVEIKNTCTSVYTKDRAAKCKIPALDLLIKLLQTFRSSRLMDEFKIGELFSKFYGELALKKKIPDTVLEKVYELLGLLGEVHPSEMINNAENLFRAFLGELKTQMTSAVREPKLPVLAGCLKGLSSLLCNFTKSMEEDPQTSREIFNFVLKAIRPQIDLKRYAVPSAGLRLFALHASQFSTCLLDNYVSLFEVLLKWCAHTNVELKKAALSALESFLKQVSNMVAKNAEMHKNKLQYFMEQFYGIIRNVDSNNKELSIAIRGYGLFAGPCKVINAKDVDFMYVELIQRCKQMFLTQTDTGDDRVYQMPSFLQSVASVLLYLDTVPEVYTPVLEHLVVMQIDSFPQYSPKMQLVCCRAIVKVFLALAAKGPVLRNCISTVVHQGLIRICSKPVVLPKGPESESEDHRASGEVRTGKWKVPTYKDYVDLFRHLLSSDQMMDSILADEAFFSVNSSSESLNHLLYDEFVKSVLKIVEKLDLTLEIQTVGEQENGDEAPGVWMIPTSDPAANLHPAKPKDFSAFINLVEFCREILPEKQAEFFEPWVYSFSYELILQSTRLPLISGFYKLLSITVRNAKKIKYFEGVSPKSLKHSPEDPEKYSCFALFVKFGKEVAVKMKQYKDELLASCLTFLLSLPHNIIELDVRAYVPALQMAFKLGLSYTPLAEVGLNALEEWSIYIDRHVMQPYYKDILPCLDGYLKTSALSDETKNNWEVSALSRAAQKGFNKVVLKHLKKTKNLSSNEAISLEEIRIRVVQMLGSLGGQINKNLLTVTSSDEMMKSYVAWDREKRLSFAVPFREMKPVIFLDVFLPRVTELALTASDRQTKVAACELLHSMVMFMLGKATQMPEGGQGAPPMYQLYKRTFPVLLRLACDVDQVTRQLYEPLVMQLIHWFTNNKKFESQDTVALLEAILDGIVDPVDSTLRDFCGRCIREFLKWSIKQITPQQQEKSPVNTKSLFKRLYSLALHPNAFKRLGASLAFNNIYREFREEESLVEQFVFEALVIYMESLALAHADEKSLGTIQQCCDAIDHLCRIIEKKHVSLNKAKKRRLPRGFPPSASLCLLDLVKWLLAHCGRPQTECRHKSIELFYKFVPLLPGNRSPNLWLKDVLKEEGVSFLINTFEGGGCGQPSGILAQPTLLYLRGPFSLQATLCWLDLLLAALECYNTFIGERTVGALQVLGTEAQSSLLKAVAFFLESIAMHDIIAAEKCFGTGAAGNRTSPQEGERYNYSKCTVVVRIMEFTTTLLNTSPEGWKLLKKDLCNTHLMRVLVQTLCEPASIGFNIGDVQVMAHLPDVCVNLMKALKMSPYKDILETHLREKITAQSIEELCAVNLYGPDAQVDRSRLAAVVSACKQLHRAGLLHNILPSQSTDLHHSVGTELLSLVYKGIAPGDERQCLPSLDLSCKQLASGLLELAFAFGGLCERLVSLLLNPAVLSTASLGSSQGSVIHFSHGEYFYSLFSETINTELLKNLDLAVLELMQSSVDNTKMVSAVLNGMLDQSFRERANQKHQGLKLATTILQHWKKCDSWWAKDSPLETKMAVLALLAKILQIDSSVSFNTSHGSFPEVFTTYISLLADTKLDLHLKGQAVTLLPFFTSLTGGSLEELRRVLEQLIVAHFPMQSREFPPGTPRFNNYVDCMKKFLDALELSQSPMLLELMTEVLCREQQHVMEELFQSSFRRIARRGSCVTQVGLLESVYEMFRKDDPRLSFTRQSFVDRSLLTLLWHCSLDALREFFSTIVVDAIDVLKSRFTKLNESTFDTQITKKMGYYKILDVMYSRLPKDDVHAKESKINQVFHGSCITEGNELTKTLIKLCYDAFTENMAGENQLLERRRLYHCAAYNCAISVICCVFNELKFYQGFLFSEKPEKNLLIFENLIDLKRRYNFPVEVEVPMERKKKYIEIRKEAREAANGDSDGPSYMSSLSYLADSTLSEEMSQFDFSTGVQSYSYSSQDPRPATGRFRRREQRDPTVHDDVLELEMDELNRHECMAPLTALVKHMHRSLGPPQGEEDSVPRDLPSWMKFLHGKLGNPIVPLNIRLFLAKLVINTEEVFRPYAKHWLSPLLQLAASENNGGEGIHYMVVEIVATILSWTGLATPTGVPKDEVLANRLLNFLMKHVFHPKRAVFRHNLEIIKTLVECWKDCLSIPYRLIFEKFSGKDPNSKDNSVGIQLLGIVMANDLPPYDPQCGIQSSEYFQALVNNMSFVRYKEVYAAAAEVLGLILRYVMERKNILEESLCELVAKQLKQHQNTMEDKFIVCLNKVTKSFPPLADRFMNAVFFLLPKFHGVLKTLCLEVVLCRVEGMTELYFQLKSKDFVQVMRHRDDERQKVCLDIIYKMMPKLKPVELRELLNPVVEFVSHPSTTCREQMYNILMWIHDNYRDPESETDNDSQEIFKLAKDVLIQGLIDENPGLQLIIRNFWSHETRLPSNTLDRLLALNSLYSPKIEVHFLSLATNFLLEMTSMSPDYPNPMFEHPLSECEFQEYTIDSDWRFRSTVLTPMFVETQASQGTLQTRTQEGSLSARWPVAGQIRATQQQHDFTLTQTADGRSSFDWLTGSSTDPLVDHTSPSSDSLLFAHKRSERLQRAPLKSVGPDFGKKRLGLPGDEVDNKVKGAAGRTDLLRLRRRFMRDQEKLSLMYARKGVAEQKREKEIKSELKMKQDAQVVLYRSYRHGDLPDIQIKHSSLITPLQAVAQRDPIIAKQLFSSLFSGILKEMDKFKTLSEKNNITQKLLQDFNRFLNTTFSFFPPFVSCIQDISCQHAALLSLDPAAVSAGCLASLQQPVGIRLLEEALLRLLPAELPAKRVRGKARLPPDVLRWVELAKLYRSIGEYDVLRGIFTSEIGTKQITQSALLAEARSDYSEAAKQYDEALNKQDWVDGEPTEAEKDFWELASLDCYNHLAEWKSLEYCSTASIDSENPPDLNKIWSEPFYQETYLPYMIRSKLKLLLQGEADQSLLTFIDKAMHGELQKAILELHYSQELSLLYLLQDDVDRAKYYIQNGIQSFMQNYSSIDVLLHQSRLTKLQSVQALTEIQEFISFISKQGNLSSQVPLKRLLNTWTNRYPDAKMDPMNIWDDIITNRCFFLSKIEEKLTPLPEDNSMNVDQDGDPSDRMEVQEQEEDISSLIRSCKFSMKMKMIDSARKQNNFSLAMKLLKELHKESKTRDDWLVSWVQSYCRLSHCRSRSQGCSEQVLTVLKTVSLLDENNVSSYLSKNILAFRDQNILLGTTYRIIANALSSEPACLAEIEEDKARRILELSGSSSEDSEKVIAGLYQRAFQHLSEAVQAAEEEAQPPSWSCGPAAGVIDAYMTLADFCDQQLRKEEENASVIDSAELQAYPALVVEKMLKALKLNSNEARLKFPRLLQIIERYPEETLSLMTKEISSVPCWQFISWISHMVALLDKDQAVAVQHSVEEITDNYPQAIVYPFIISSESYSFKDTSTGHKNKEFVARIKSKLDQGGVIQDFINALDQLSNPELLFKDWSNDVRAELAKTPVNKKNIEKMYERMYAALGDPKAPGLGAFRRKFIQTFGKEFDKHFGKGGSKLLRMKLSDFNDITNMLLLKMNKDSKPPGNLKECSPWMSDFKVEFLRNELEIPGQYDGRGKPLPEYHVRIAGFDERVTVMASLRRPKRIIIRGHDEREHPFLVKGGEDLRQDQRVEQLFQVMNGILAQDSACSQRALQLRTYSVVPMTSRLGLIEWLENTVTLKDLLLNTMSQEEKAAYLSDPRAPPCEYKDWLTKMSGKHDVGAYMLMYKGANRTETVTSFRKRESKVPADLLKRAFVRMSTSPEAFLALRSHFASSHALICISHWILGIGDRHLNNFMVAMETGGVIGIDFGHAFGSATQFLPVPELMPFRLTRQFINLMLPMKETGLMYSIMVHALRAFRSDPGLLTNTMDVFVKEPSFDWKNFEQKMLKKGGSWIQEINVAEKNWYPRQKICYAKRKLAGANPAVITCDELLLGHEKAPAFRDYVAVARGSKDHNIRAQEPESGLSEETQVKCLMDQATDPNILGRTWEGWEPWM
UniProt P11387: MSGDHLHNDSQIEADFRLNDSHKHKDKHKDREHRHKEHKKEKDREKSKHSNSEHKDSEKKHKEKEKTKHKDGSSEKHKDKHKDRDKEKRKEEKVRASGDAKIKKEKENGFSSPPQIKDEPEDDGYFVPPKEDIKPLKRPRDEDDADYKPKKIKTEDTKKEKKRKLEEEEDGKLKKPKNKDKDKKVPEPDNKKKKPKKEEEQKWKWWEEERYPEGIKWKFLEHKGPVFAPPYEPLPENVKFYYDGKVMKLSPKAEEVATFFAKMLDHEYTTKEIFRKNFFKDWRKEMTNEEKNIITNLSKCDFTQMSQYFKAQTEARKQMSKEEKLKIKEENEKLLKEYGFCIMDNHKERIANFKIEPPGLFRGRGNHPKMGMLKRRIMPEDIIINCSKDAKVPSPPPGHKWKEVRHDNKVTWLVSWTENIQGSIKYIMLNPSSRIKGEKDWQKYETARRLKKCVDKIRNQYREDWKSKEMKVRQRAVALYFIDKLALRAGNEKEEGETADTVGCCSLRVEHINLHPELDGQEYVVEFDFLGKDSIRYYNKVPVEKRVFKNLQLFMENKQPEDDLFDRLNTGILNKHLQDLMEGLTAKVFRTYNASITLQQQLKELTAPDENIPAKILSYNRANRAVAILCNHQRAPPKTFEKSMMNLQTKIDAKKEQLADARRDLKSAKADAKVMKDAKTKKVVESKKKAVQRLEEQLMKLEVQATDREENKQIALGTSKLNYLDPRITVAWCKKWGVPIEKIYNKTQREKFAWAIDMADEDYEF

These are yes or no findings as the source states them, for the method shown. Binding seen in cells or lysates may run through a third protein. A yes stands for co-enrichment or nearness to the bait. Other partners may have been found.

On to “APEX1 (from UniProt P27695 1-318) (other; other documents disagree on this pair)”, for which the binding entry is given as “binds”.

Regarding “DNA polymerase δ (POLδ or POLD1) (from UniProt P28340 1-1107)”, the binding entry is listed as “binds”. Then DNA-PK (from UniProt P78527 1-4128), with “binds”; and Ku70 (from UniProt P12956 1-609), with “binds”. Then Ku80 (from UniProt P13010 1-732), with “binds”; and PARP1 (from UniProt P09874 1-1014), with “binds”; and PCNA (from UniProt P12004 1-261), with “binds”.

As for TOP1 (from UniProt P11387 1-765), the binding entry was “binds”.

For the origin of these results see doi:10.1101/2020.04.22.055343.
